Laboratory results from patent publication US20180320217A1, “METHODS FOR SAMPLING AND MEASURING ORAL LAVAGE PROTEINS” (The Procter & Gamble Company, priority 2017, published 2018).

B1: Complement C1r subcomponent (protein, UniProt P00736 18-705, looked up)
Complement C1r subcomponent: SIPIPQKLFGEVTSPLFPKPYPNNFETTTVITVPTGYRVKLVFQQFDLEPSEGCFYDYVKISADKKSLGRFCGQLGSPLGNPPGKKEFMSQGNKMLLTFHTDFSNEENGTIMFYKGFLAYYQAVDLDECASRSKSGEEDPQPQCQHLCHNYVGGYFCSCRPGYELQEDTHSCQAECSSELYTEASGYISSLEYPRSYPPDLRCNYSIRVERGLTLHLKFLEPFDIDDHQQVHCPYDQLQIYANGKNIGEFCGKQRPPDLDTSSNAVDLLFFTDESGDSRGWKLRYTTEIIKCPQPKTLDEFTIIQNLQPQYQFRDYFIATCKQGYQLIEGNQVLHSFTAVCQDDGTWHRAMPRCKIKDCGQPRNLPNGDFRYTTTMGVNTYKARIQYYCHEPYYKMQTRAGSRESEQGVYTCTAQGIWKNEQKGEKIPRCLPVCGKPVNPVEQRQRIIGGQKAKMGNFPWQVFTNIHGRGGGALLGDRWILTAAHTLYPKEHEAQSNASLDVFLGHTNVEELMKLGNHPIRRVSVHPDYRQDESYNFEGDIALLELENSVTLGPNLLPICLPDNDTFYDLGLMGYVSGFGVMEEKIAHDLRFVRLPVANPQACENWLRGKNRMDVFSQNMFCAGHPSLKQDACQGDSGGVFAVRDPNTDRWVATGIVSWGIGCSRGYGFYTKVLNYVDWIKKEMEEED
B2: Contactin-5 (protein, UniProt O94779 19-1072, looked up)
Contactin-5: EYSKSLPGLSTSYAALLRIKKSSSSSLFGSKTRPRYSSPSLGTLSASSPSWLGAAQNYYSPINLYHSSDAFKQDESVDYGPVFVQEPDDIIFPTDSDEKKVALNCEVRGNPVPSYRWLRNGTEIDLESDYRYSLIDGTFIISNPSEAKDSGHYQCLATNTVGSILSREATLQFAYLGNFSGRTRSAVSVREGQGVVLMCSPPPHSPEIIYSWVFNEFPSFVAEDSRRFISQETGNLYISKVQTSDVGSYICLVKNTVTNARVLSPPTPLTLRNDGVMGEYEPKIEVHFPFTVTAAKGTTVKMECFALGNPVPTITWMKVNGYIPSKARLRKSQAVLEIPNVQLDDAGIYECRAENSRGKNSFRGQLQVYTYPHWVEKLNDTQLDSGSPLRWECKATGKPRPTYRWLKNGVPLSPQSRVEMVNGVLMIHNVNQSDAGMYQCLAENKYGAIYASAELKILASAPTFALNQLKKTIIVTKDQEVVIECKPQGSPKPTISWKKGDRAVRENKRIAILPDGSLRILNASKSDEGKYVCRGENVFGSAEIIASLSVKEPTRIELTPKRTELTVGESIVLNCKAIHDASLDVTFYWTLKGQPIDFEEEGGHFESIRAQASSADLMIRNILLMHAGRYGCRVQTTADSVSDEAELLVRGPPGPPGIVIVEEITESTATLSWSPAADNHSPISSYNLQARSPFSLGWQTVKTVPEIITGDMESAMAVDLNPWVEYEFRVVATNPIGTGDPSTPSRMIRTNEAVPKTAPTNVSGRSGRRHELVIAWEPVSEEFQNGEGFGYIVAFRPNGTRGWKEKMVTSSEASKFIYRDESVPPLTPFEVKVGVYNNKGDGPFSQIVVICSAEGEPSAAPTDVKATSVSVSEILVAWKHIKESLGRPQGFEVGYWKDMEQEDTAETVKTRGNESFVILTGLEGNTLYHFTVRAYNGAGYGPPSSEVSATTKKSPPSQAPSNLRWEQQGSQVSLGWEPVIPLANESEVVGYKVFYRQEGHSNSQVIETQKLQAVVPLPDAGVYIIEVRAYSEGGDGTASSQIRVPSYSGGKITS
B3: Contactin-1 (protein, UniProt Q12860 21-993, looked up)
Contactin-1: EFTWYRRYGHGVSEEDKGFGPIFEEQPINTIYPEESLEGKVSLNCRARASPFPVYKWRMNNGDVDLTSDRYSMVGGNLVINNPDKQKDAGIYYCLASNNYGMVRSTEATLSFGYLDPFPPEERPEVRVKEGKGMVLLCDPPYHFPDDLSYRWLLNEFPVFITMDKRRFVSQTNGNLYIANVEASDKGNYSCFVSSPSITKSVFSKFIPLIPIPERTTKPYPADIVVQFKDVYALMGQNVTLECFALGNPVPDIRWRKVLEPMPSTAEISTSGAVLKIFNIQLEDEGIYECEAENIRGKDKHQARIYVQAFPEWVEHINDTEVDIGSDLYWPCVATGKPIPTIRWLKNGYAYHKGELRLYDVTFENAGMYQCIAENTYGAIYANAELKILALAPTFEMNPMKKKILAAKGGRVIIECKPKAAPKPKFSWSKGTEWLVNSSRILIWEDGSLEINNITRNDGGIYTCFAENNRGKANSTGTLVITDPTRIILAPINADITVGENATMQCAASFDPALDLTFVWSFNGYVIDFNKENIHYQRNFMLDSNGELLIRNAQLKHAGRYTCTAQTIVDNSSASADLVVRGPPGPPGGLRIEDIRATSVALTWSRGSDNHSPISKYTIQTKTILSDDWKDAKTDPPIIEGNMEAARAVDLIPWMEYEFRVVATNTLGRGEPSIPSNRIKTDGAAPNVAPSDVGGGGGRNRELTITWAPLSREYHYGNNFGYIVAFKPFDGEEWKKVTVTNPDTGRYVHKDETMSPSTAFQVKVKAFNNKGDGPYSLVAVINSAQDAPSEAPTEVGVKVLSSSEISVHWEHVLEKIVESYQIRYWAAHDKEEAANRVQVTSQEYSARLENLLPDTQYFIEVGACNSAGCGPPSDMIEAFTKKAPPSQPPRIISSVRSGSRYIITWDHVVALSNESTVTGYKVLYRPDGQHDGKLYSTHKHSIEVPIPRDGEYVVEVRAHSDGGDGVVSQVKIS
B4: Complement C2 (protein, UniProt P06681 21-752, looked up)
Complement C2: APSCPQNVNISGGTFTLSHGWAPGSLLTYSCPQGLYPSPASRLCKSSGQWQTPGATRSLSKAVCKPVRCPAPVSFENGIYTPRLGSYPVGGNVSFECEDGFILRGSPVRQCRPNGMWDGETAVCDNGAGHCPNPGISLGAVRTGFRFGHGDKVRYRCSSNLVLTGSSERECQGNGVWSGTEPICRQPYSYDFPEDVAPALGTSFSHMLGATNPTQKTKESLGRKIQIQRSGHLNLYLLLDCSQSVSENDFLIFKESASLMVDRIFSFEINVSVAIITFASEPKVLMSVLNDNSRDMTEVISSLENANYKDHENGTGTNTYAALNSVYLMMNNQMRLLGMETMAWQEIRHAIILLTDGKSNMGGSPKTAVDHIREILNINQKRNDYLDIYAIGVGKLDVDWRELNELGSKKDGERHAFILQDTKALHQVFEHMLDVSKLTDTICGVGNMSANASDQERTPWHVTIKPKSQETCRGALISDQWVLTAAHCFRDGNDHSLWRVNVGDPKSQWGKEFLIEKAVISPGFDVFAKKNQGILEFYGDDIALLKLAQKVKMSTHARPICLPCTMEANLALRRPQGSTCRDHENELLNKQSVPAHFVALNGSKLNINLKMGVEWTSCAEVVSQEKTMFPNLTDVREVVTDQFLCSGTQEDESPCKGESGGAVFLERRFRFFQVGLVSWGLYNPCLGSADKNSRKRAPRSKVPPPRDFHINLFRMQPWLRQHLGDVLNFLPL
B5: ICAL_HUMAN (protein, UniProt P20810 1-708, looked up)
Calpastatin: MNPTETKAIPVSQQMEGPHLPNKKKHKKQAVKTEPEKKSQSTKLSVVHEKKSQEGKPKEHTEPKSLPKQASDTGSNDAHNKKAVSRSAEQQPSEKSTEPKTKPQDMISAGGESVAGITAISGKPGDKKKEKKSLTPAVPVESKPDKPSGKSGMDAALDDLIDTLGGPEETEEENTTYTGPEVSDPMSSTYIEELGKREVTIPPKYRELLAKKEGITGPPADSSKPIGPDDAIDALSSDFTCGSPTAAGKKTEKEESTEVLKAQSAGTVRSAAPPQEKKRKVEKDTMSDQALEALSASLGTRQAEPELDLRSIKEVDEAKAKEEKLEKCGEDDETIPSEYRLKPATDKDGKPLLPEPEEKPKPRSESELIDELSEDFDRSECKEKPSKPTEKTEESKAAAPAPVSEAVCRTSMCSIQSAPPEPATLKGTVPDDAVEALADSLGKKEADPEDGKPVMDKVKEKAKEEDREKLGEKEETIPPDYRLEEVKDKDGKPLLPKESKEQLPPMSEDFLLDALSEDFSGPQNASSLKFEDAKLAAAISEVVSQTPASTTQAGAPPRDTSQSDKDLDDALDKLSDSLGQRQPDPDENKPMEDKVKEKAKAEHRDKLGERDDTIPPEYRHLLDDNGQDKPVKPPTKKSEDSKKPADDQDPIDALSGDLDSCPSTTETSQNTAKDKCKKAASSSKAPKNGGKAKDSAKTTEETSKPKDD
B6: CALR_HUMAN (protein, UniProt P27797 18-417, looked up)
Calreticulin: EPAVYFKEQFLDGDGWTSRWIESKHKSDFGKFVLSSGKFYGDEEKDKGLQTSQDARFYALSASFEPFSNKGQTLVVQFTVKHEQNIDCGGGYVKLFPNSLDQTDMHGDSEYNIMFGPDICGPGTKKVHVIFNYKGKNVLINKDIRCKDDEFTHLYTLIVRPDNTYEVKIDNSQVESGSLEDDWDFLPPKKIKDPDASKPEDWDERAKIDDPTDSKPEDWDKPEHIPDPDAKKPEDWDEEMDGEWEPPVIQNPEYKGEWKPRQIDNPDYKGTWIHPEIDNPEYSPDPSIYAYDNFGVLGLDLWQVKSGTIFDNFLITNDEAYAEEFGNETWGVTKAAEKQMKDKQDEEQRLKEEEEDKKRKEEEEAEDKEDDEDKDEDEEDEEDKEEDEEEDVPGQAKDEL
B7: CHM4B_HUMAN (protein, UniProt Q9H444 2-224, looked up)
Charged multivesicular body …: SVFGKLFGAGGGKAGKGGPTPQEAIQRLRDTEEMLSKKQEFLEKKIEQELTAAKKHGTKNKRAALQALKRKKRYEKQLAQIDGTLSTIEFQREALENANTNTEVLKNMGYAAKAMKAAHDNMDIDKVDELMQDIADQQELAEEISTAISKPVGFGEEFDEDELMAELEELEQEELDKNLLEISGPETVPLPNVPSIALPSKPAKKKEEEDDDMKELENWAGSM

System: proteins in oral lavage
Test: Abundance of proteins in human oral lavage (SomaLogic), TABLE 1
Format: in vivo
Settings: abundance in oral lavage; high bleeders (gingivitis), baseline

Molecule	Means (Original Scale) High bleeder BL
B1	7672
B2	937
B3	9982
B4	4609

Same assay, conditions: abundance in oral lavage; high bleeders, week 4 of investigative products

Molecule	Means (Original Scale) High bleeder W4
B1	2780
B2	612
B3	5517
B4	1511

Same assay, conditions: abundance in oral lavage; low bleeders (healthy), baseline

Molecule	Means (Original Scale) Low bleeder BL
B1	918
B2	281
B3	1919
B4	455

Same assay, conditions: oral lavage; high bleeders vs low bleeders at baseline

Molecule	Fold Change High bleeder BL vs Low bleeder BL
B1	8.87
B2	3.15
B3	4.20
B4	6.34

Same assay, conditions: oral lavage; week 4 of investigative products vs baseline, high bleeders

Molecule	Fold Change High bleeder W4 vs High bleeder BL
B1	0.52
B2	0.63
B3	0.60
B4	0.64

System: peptides in gingival brush samples
Test: Protein and peptide profiling of gingival brush samples (LC-MS/MS), TABLE 23
Format: in vivo, human
Settings: peptide abundance, gingival brush samples, control regimen, baseline

Molecule	Mean Cntl Bsl
B5	7447.8
B6	8830.2
B7	325.9

Same assay, conditions: peptide abundance, gingival brush samples, control regimen, week 3

Molecule	Mean Cntl Wk3
B5	9228.5
B6	15188.8
B7	1287.6

Same assay, conditions: peptide abundance, gingival brush samples, treatment regimen, baseline

Molecule	Mean TrtBsl
B5	7723.3
B6	11499.9
B7	616.9

Same assay, conditions: peptide abundance, gingival brush samples, treatment regimen, week 3

Molecule	Mean TrtWk3
B5	11067.6
B6	16791.2
B7	1454.2
